Values from PubChem BioAssay AID1508597 (Cure First, 2020).

Test: 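Survival screen with siRNA in ovarian cancer cells derived from patients, with or without rucaparib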 (primary screen)
Cells: human ovarian carcinoma lines grown from tumours: OCI-P5x (papillary serous) and OCI-C5x (clear cell)
Reagent: siRNA pool against human genes, 1.25 pmol siRNA per well
Duration: 72 h or 96 h, depending on the cell culture
Treatment: rucaparib 20 µM (about IC30) or vehicle, present until read-out
Rucaparib or vehicle: Rucaparib
Cell line: OCI-C5x (clear cell)
Measured: 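Luminescent ATP-based viability assay read 72 or 96 h after transfection, depending on culture, given as normalised percent viability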
Reading the numbers: viability, normalised: higher = more viable cells remaining
Call rule: 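Active when normalised viability falls below 80 percent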
Meaning of the calls: active = viability under 80%; inactive = viability 80% or more
Shown is a random part of the about 2,100 reagents, in one setting of the screen. 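Calls flag viability under 80% in either arm, not effects specific to rucaparib; the reference for percent is not stated.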 Not stated in the record: the 100% reference.

Gene | technical replicate | viability, normalised (%) | activity call
RIOK3 (RIO kinase 3) | 1 | 61.2 | active
RIOK3 (RIO kinase 3) | 2 | 57.7 | active
RIOK3 (RIO kinase 3) | 3 | 68.5 | active
CRKL (CRK like proto-oncogene, adaptor protein) | 1 | 36.1 | active
CRKL (CRK like proto-oncogene, adaptor protein) | 2 | 35.9 | active
CRKL (CRK like proto-oncogene, adaptor protein) | 3 | 66.3 | active
MPLKIP (M-phase specific PLK1 interacting protein) | 1 | 58.4 | active
MPLKIP (M-phase specific PLK1 interacting protein) | 2 | 43 | active
MPLKIP (M-phase specific PLK1 interacting protein) | 3 | 42.8 | active
PTGR1 (prostaglandin reductase 1) | 1 | 49.1 | active
PTGR1 (prostaglandin reductase 1) | 2 | 44.9 | active
PTGR1 (prostaglandin reductase 1) | 3 | 43 | active
PHKB (phosphorylase kinase regulatory subunit beta) | 1 | 47.1 | active
PHKB (phosphorylase kinase regulatory subunit beta) | 2 | 64.9 | active
PHKB (phosphorylase kinase regulatory subunit beta) | 3 | 60.7 | active
TSSK2 (testis specific serine kinase 2) | 1 | 51 | active
TSSK2 (testis specific serine kinase 2) | 2 | 74.3 | active
TSSK2 (testis specific serine kinase 2) | 3 | 53.3 | active
FGR (FGR proto-oncogene, Src family tyrosine kinase) | 1 | 53.3 | active
FGR (FGR proto-oncogene, Src family tyrosine kinase) | 2 | 45.9 | active
FGR (FGR proto-oncogene, Src family tyrosine kinase) | 3 | 47.1 | active
SLC1A4 | 1 | 41.3 | active
SLC1A4 | 2 | 60.9 | active
SLC1A4 | 3 | 55.9 | active

A few values from the entries so far:
CRKL (CRK like proto-oncogene, adaptor protein), technical replicate 1, viability, normalised (%) → 36.1
Result for PTGR1 (prostaglandin reductase 1), technical replicate 1 in “activity call”: active
Value for TSSK2 (testis specific serine kinase 2), technical replicate 1 in “activity call”: active
FGR (FGR proto-oncogene, Src family tyrosine kinase), technical replicate 3, viability, normalised (%) = 47.1
CRKL (CRK like proto-oncogene, adaptor protein), technical replicate 3, viability, normalised (%) → 66.3
Value for MPLKIP (M-phase specific PLK1 interacting protein), technical replicate 3 under “activity call”: active

The list goes on:
Gene | technical replicate | viability, normalised (%) | activity call
EFNA5 (ephrin A5) | 1 | 39.1 | active
EFNA5 (ephrin A5) | 2 | 60 | active
EFNA5 (ephrin A5) | 3 | 55.3 | active
PRDM12 (PR/SET domain 12) | 1 | 51.2 | active
PRDM12 (PR/SET domain 12) | 2 | 48.2 | active
PRDM12 (PR/SET domain 12) | 3 | 41.8 | active
DHX57 (DExH-box helicase 57) | 1 | 52.4 | active
DHX57 (DExH-box helicase 57) | 2 | 36.5 | active
DHX57 (DExH-box helicase 57) | 3 | 43.5 | active
ACVR1B (activin A receptor type 1B) | 1 | 59.7 | active
ACVR1B (activin A receptor type 1B) | 2 | 58.3 | active
ACVR1B (activin A receptor type 1B) | 3 | 60.8 | active
ALG8 (ALG8 alpha-1,3-glucosyltransferase) | 1 | 46 | active
ALG8 (ALG8 alpha-1,3-glucosyltransferase) | 2 | 53.6 | active
ALG8 (ALG8 alpha-1,3-glucosyltransferase) | 3 | 52 | active
